Data reported in patent US20240040982, “CEREAL GRAIN WITH THICKENED ALEURONE” (Commonwealth Scientific and Industrial Research Organisation, published 2024).
The comparison behind a weaker result is the experiment's own reference, which may not be listed here. Protein sequences can lack the tags named with them.

Test system: T1, ta1-1 I truncated TA1 (Oryza sativa)
T1 sequence (limits assumed): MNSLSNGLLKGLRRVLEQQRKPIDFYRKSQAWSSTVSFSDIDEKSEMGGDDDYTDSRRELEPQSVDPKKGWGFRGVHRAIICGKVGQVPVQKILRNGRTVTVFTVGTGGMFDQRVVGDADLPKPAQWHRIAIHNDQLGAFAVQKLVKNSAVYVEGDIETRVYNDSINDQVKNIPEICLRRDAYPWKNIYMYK
Experiment: EMSA
Details: 8 ug mutant gives shift similar to 2 ug wild type; purified recombinant protein; protein details: N-terminal 6xHis, expressed in E. coli; label: 3' biotin (biotinylated CTP); single-stranded DNA

ACTCCCTCTCCCTTGCGGATTCGAATGGTAGTACATTCTCTTCGA [45-nt EMSA ssDNA probe]
binding result: binds more weakly
